Source: PubChem BioAssay AID1487 (National Center for Advancing Translational Sciences (NCATS), 2009)
The other results are listed elsewhere or left out. Further columns of the screen follow, without active or inactive calls. Most of these compounds were active or inconclusive in the main read-out, so they are no random draw. The note in brackets gives the kind of curve behind each potency; many fits are weak.

Assay: qHTS Assay for Modulators of Lamin A Splicing
Conditions: HeLa LMNA splicing GFP/RFP minigene ratio, 48 h
How it was run: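 S3 HeLa cells stably expressing lamin A-EGFP splicing minigene plus DsRed2, 600 cells/well, 48 h compound exposure at 37C. Laser-scanning cytometry; analysed as GFP (500-530 nm)/RFP (575-640 nm) total intensity ratio; 0.5% DMSO vehicle.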

[1] = measured here: RFP viability control channel
[2] = measured here: GFP splicing reporter channel

| Compound | AC50 [1] | AC50 [2] |
| --- | --- | --- |
| Cc1cc(NC(=O)CSc2ncnc3c2cnn3-c2cccc(Cl)c2)no1 | 3.98 µM [rising, full curve, poor fit] |  |
| N#Cc1ccc(CN2C(=O)c3ccccc3Sc3ccc(C(=O)OCc4ccco4)cc32)cc1 | 0.251 µM [rising, full curve, poor fit] | 4.47 µM [rising, full curve, poor fit] |
| COc1ccc(OCc2nc(N)nc(Nc3ccc(C)cc3)n2)cc1 | 11.2 µM [rising, single point] | 10 µM [rising, partial curve] |
| C=CCc1cccc(/C=N/NC(=O)CCC(=O)Nc2ccc(F)cc2)c1O | 17.8 µM [rising, partial curve] | 12.6 µM [rising, single point] |
| Cc1nn(C)c(C(=O)Nc2ccn(C34CC5CC(CC(C5)C3)C4)n2)c1[N+](=O)[O-] | 35.5 µM [rising, single point] |  |
| Cc1cccc(N2CCN(C(=O)CSCc3ccc(F)cc3)CC2)c1C |  | 11.2 µM [falling, partial curve] |
| O=C(Cn1c(=O)oc2cc(S(=O)(=O)N3CCCC3)ccc21)N1CCN(c2ccccc2)CC1 | 1.78 µM [rising, partial curve, poor fit] |  |
| CCc1cc(/C(Cc2csc(C)n2)=N/O)c(O)cc1O | 6.31 µM [rising, full curve] |  |
| Cc1ccc(N2C(=O)N(CC(=O)Nc3ccc(C)cc3C)C(=O)C2C)cc1 (stereo unspecified) | 10 µM [falling, partial curve] |  |
| CCOC(=O)/C=C/C(=O)Nc1ccc(S(=O)(=O)N2CCCCCC2)cc1 | 31.6 µM [falling, partial curve] | 35.5 µM [falling, partial curve] |
| O=C(NCc1ccccc1)c1ccc(NC(=O)c2nsc3ccccc23)cc1 |  | 0.316 µM [rising, full curve, poor fit] |
| Cc1nc2ccccn2c1C(=O)NCc1ccc2c(c1)OCO2 | 15.8 µM [rising, partial curve] |  |
| CCOc1cccc(CC(=O)Nc2ccc3nc(N4CCCCC4)cc(C)c3c2)c1OCC | 7.08 µM [rising, full curve, poor fit] |  |
| COc1ccc(-n2c(C)cc(-c3csc(NC(=O)c4ccc(S(=O)(=O)N(C)C)cc4)n3)c2C)cc1 | 15.8 µM [rising, partial curve] | 17.8 µM [rising, partial curve, poor fit] |
| CC(c1ccon1)N(C)Cc1cn[nH]c1-c1ccc(-c2ccccc2)cc1 (stereo unspecified) | 35.5 µM [falling, single point] | 35.5 µM [falling, partial curve] |
| O=C(CN1C(=O)C2CCCCN2c2ccc(C(=O)N3CCCC3)cc21)NCc1cccc(Cl)c1 (stereo unspecified) |  | 6.31 µM [falling, partial curve, poor fit] |
| COc1cc2c(cc1NC(=O)/C=C/c1ccccc1)oc1ccccc12 | 12.6 µM [rising, partial curve] | 12.6 µM [rising, partial curve] |
| C=CCNC(=O)c1cc(C(=O)C(C)c2ncc(C(F)(F)F)cc2Cl)c[nH]1 (stereo unspecified) | 35.5 µM [falling, partial curve, poor fit] |  |
| CC(=O)[C@H]1CC[C@H]2[C@@H]3C[C@H](C)C4=CC(=O)CC[C@]4(C)[C@H]3[C@@H](O)C[C@]12C |  | 0.158 µM [rising, partial curve, poor fit] |
| Cc1ccc(Cl)c2sc(NC(=O)CS(=O)(=O)c3ccc(Cl)cc3)nc12 | 2.82 µM [falling, partial curve, poor fit] | 35.5 µM [falling, single point] |
| COc1cc2ccccc2cc1C(=O)NC(=S)Nc1cccc(C(=O)O)c1 | 35.5 µM [falling, single point] |  |
| CCC(=O)Nc1nonc1-c1nc2ccccc2n1Cc1cccc2ccccc12 |  | 25.1 µM [falling, single point] |
| CCOC(=O)OC(C)OC1=C(C(=O)Nc2ccccn2)N(C)S(=O)(=O)c2ccccc21 (stereo unspecified) | 3.98 µM [rising, full curve, poor fit] | 5.62 µM [rising, single point] |
| O=S1(=O)C=CC(Sc2nc3ccccc3[nH]2)C1 (stereo unspecified) | 35.5 µM [falling, single point] | 15.8 µM [falling, single point] |
| Cc1c(C(=O)NCC2COc3ccccc3O2)oc2ccc(S(=O)(=O)N3CC(C)CC(C)C3)cc12 (stereo unspecified) | 11.2 µM [rising, partial curve] | 10 µM [rising, partial curve, poor fit] |
| CCN(CC)C1=CC2=CC(=C(C#N)C#N)CCC2CC1 (stereo unspecified) | 0.447 µM [falling, full curve] | 0.251 µM [falling, full curve] |
| Cc1ccn(CC(=O)N/N=C/c2cc([N+](=O)[O-])ccc2O)n1 | 22.4 µM [rising, single point] | 17.8 µM [rising, partial curve] |

Of the compounds above, 9 have four or more nitrogen atoms:

| Compound | AC50 [1] | AC50 [2] |
| --- | --- | --- |
| Cc1cc(NC(=O)CSc2ncnc3c2cnn3-c2cccc(Cl)c2)no1 | 3.98 µM [rising, full curve, poor fit] |  |
| COc1ccc(OCc2nc(N)nc(Nc3ccc(C)cc3)n2)cc1 | 11.2 µM [rising, single point] | 10 µM [rising, partial curve] |
| Cc1nn(C)c(C(=O)Nc2ccn(C34CC5CC(CC(C5)C3)C4)n2)c1[N+](=O)[O-] | 35.5 µM [rising, single point] |  |
| O=C(Cn1c(=O)oc2cc(S(=O)(=O)N3CCCC3)ccc21)N1CCN(c2ccccc2)CC1 | 1.78 µM [rising, partial curve, poor fit] |  |
| COc1ccc(-n2c(C)cc(-c3csc(NC(=O)c4ccc(S(=O)(=O)N(C)C)cc4)n3)c2C)cc1 | 15.8 µM [rising, partial curve] | 17.8 µM [rising, partial curve, poor fit] |
| CC(c1ccon1)N(C)Cc1cn[nH]c1-c1ccc(-c2ccccc2)cc1 (stereo unspecified) | 35.5 µM [falling, single point] | 35.5 µM [falling, partial curve] |
| O=C(CN1C(=O)C2CCCCN2c2ccc(C(=O)N3CCCC3)cc21)NCc1cccc(Cl)c1 (stereo unspecified) |  | 6.31 µM [falling, partial curve, poor fit] |
| CCC(=O)Nc1nonc1-c1nc2ccccc2n1Cc1cccc2ccccc12 |  | 25.1 µM [falling, single point] |
| Cc1ccn(CC(=O)N/N=C/c2cc([N+](=O)[O-])ccc2O)n1 | 22.4 µM [rising, single point] | 17.8 µM [rising, partial curve] |

Additional records:

| Compound | AC50 [1] | AC50 [2] |
| --- | --- | --- |
| CCOC(=O)C1CCCN(C(=O)C(C)(C)Oc2ccc(Cl)cc2)C1 (stereo unspecified) | 0.141 µM [falling, full curve, poor fit] | 0.02 µM [falling, full curve, poor fit] |
| CC(C)CC1c2[nH]c3ccccc3c2CCN1C(=O)CCC(=O)N(C)C (stereo unspecified) |  | 22.4 µM [falling, single point] |
| Clc1ccc(-c2c[n+](Cc3cccc(Cl)c3)c3n2CCC3)cc1 | 15.8 µM [rising, partial curve] | 12.6 µM [rising, single point] |
| COc1ccc(-c2[nH]c(-c3cc(OC)c4c(c3)OCO4)nc2-c2ccccc2)cc1 | 20 µM [rising, partial curve] |  |
| CNC(=O)c1cccnc1Nc1cccc(C(F)(F)F)c1 | 1.12 µM [rising, full curve, poor fit] |  |
| COc1ccc(NS(=O)(=O)c2ccc(NC(=O)Cc3cccs3)cc2)cc1 | 20 µM [rising, partial curve] | 14.1 µM [rising, single point] |
| O=C(Nc1ccc(N2CCN(C(=O)c3ccco3)CC2)c(Cl)c1)c1cc2ccccc2o1 | 3.55 µM [falling, partial curve] | 14.1 µM [falling, partial curve] |
| COc1ccc(Cn2nnnc2C(C(C)C)N2CCc3ccccc32)cc1 (stereo unspecified) |  | 12.6 µM [rising, single point] |
| N#Cc1c(NC(=O)Cn2cnc3ccccc3c2=O)oc(-c2ccccc2)c1-c1ccccc1 |  | 14.1 µM [rising, partial curve] |
| COc1ccccc1N1CCN(c2csc3ccc(Cl)cc3c2=O)CC1 |  | 0.794 µM [falling, full curve] |
| Cc1c(N=Cc2c(O)n(Cc3ccco3)c(=O)c3ccccc23)c(=O)n(-c2ccccc2)n1C | 2.24 µM [rising, full curve] | 5.01 µM [rising, partial curve, poor fit] |
| N#C/C(=C(/O)COc1ccc(Cl)cc1)c1nc2ccccc2s1 |  | 35.5 µM [rising, single point] |
| CCOc1ccc(NC(=O)c2ccccc2NS(=O)(=O)c2ccc(F)cc2)c([N+](=O)[O-])c1 | 17.8 µM [rising, partial curve, poor fit] |  |
| CCc1ccc2c(c1)C1(NN=C(c3ccc(C)cc3)S1)C(=O)N2 (stereo unspecified) | 3.16 µM [falling, single point] |  |
| O=C(Nc1ccc2c(c1)OCCO2)c1ccc(NC(=O)C2CCCO2)cc1 (stereo unspecified) | 11.2 µM [rising, single point] |  |
| O=C1c2cccc(OCc3ccc(F)cc3)c2CCN1Cc1ccccc1 | 1.78 µM [rising, partial curve] |  |
| CC(=O)N1c2ccccc2C(C)=CC1(C)C | 0.0224 µM [rising, full curve, poor fit] | 0.0316 µM [rising, full curve, poor fit] |
| NC(N)=N/N=C/c1ccc(Br)cc1 |  | 35.5 µM [falling, single point] |
| O=C(NNc1nc2ccccc2s1)c1ccc(F)cc1 | 35.5 µM [rising, single point] | 14.1 µM [rising, single point] |
| Cc1ccc(C2=Nc3ccccc3N(CC(=O)NCc3ccc(F)cc3)C(=O)C2)cc1C | 14.1 µM [falling, partial curve] | 12.6 µM [falling, single point] |
| COc1ccc(N(CC(=O)NC2CCCC2)C(=O)Cn2nnc(-c3ccc(C)cc3)n2)cc1 | 14.1 µM [rising, single point] |  |
| CCn1cc(C(=O)O)c(=O)c2cnc(N3CCCC3)nc21 | 7.94 µM [falling, single point] | 0.0282 µM [falling, full curve, poor fit] |
| Clc1ccc(OCCN2CCN(c3ncnc4sccc34)CC2)cc1 | 0.178 µM [rising, full curve] | 1.78 µM [rising, partial curve] |
| COc1ccc(CC(=O)Nc2cccc(-c3nnc(-c4cccc(C)c4)o3)c2)cc1OC | 3.55 µM [rising, partial curve] |  |
| COc1ccccc1C(=O)NNC(=O)CCCN1C(=O)/C(=C/c2cccs2)SC1=S | 6.31 µM [rising, single point] |  |
| COc1cc(C(=O)Oc2ccccc2/C=N/NC(=O)c2ccc(Cl)cc2)cc(OC)c1OC | 20 µM [rising, single point] |  |

Part of the list above, tab-delimited.
Compound	AC50 [1]	AC50 [2]
CNC(=O)c1cccnc1Nc1cccc(C(F)(F)F)c1	1.12 µM [rising, full curve, poor fit]	
COc1ccc(NS(=O)(=O)c2ccc(NC(=O)Cc3cccs3)cc2)cc1	20 µM [rising, partial curve]	14.1 µM [rising, single point]
